PubChem BioAssay AID652272, Drosophila RNAi Screening Center, 2013

Aim: 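Genes whose knock-down decreases or increases Hedgehog reporter output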 (primary screen)
Cells: Drosophila clone 8 (Cl8) cells
Reagent: long dsRNA against Drosophila genes
Read-out: 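Firefly light from a Hedgehog-responsive ptc promoter reporter and Renilla reference light, both read on a plate reader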
Reading the numbers: firefly Hh reporter signal: higher = more ptc reporter light; Renilla reference signal: higher = more Renilla control light
Call rule: 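Hit when the z-score averaged over two replicates is under -2 or over +3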
Calls: active = hit: reporter lowered or raised; inactive = not a hit
The screen tested about 21,000 reagents; below is an unselected part of those with a known target gene and a result. Over the whole deposit, 503 (2.4%) were called active. 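Raw plate light values, not normalised; calls rest on replicate z-scores that were not deposited; hits include reporter decreases as well as increases.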 Entries without a mark were called inactive. Not stated in the record: the amount of reagent, the time to read-out.

{"gene": "CG9445", "PubChem SID": "SID104184798", "firefly Hh reporter signal, replicate 1": 1.08e5, "firefly Hh reporter signal, replicate 2": 81450, "Renilla reference signal, replicate 1": 2556, "Renilla reference signal, replicate 2": 5751}
{"gene": "Lamtor1", "PubChem SID": "SID104189975", "firefly Hh reporter signal, replicate 1": 1.47e5, "firefly Hh reporter signal, replicate 2": 2.43e5, "Renilla reference signal, replicate 1": 4720, "Renilla reference signal, replicate 2": 5993}
{"gene": "l(3)psg2", "PubChem SID": "SID104190276", "firefly Hh reporter signal, replicate 1": 1.02e5, "firefly Hh reporter signal, replicate 2": 91109, "Renilla reference signal, replicate 1": 3632, "Renilla reference signal, replicate 2": 2713}
{"gene": "TfIIS", "PubChem SID": "SID104183247", "firefly Hh reporter signal, replicate 1": 58832, "firefly Hh reporter signal, replicate 2": 39719, "Renilla reference signal, replicate 1": 2512, "Renilla reference signal, replicate 2": 1699}
{"gene": "EloA", "PubChem SID": "SID104195901", "firefly Hh reporter signal, replicate 1": 1.16e5, "firefly Hh reporter signal, replicate 2": 57625, "Renilla reference signal, replicate 1": 4874, "Renilla reference signal, replicate 2": 2360}
{"gene": "CG34302", "PubChem SID": "SID104192543", "firefly Hh reporter signal, replicate 1": 1.60e5, "Renilla reference signal, replicate 1": 2369}
{"gene": "Cad89D", "PubChem SID": "SID104194814", "firefly Hh reporter signal, replicate 1": 78976, "firefly Hh reporter signal, replicate 2": 71428, "Renilla reference signal, replicate 1": 3340, "Renilla reference signal, replicate 2": 940}
{"gene": "prel", "PubChem SID": "SID104187063", "firefly Hh reporter signal, replicate 1": 78725, "firefly Hh reporter signal, replicate 2": 75296, "Renilla reference signal, replicate 1": 3585, "Renilla reference signal, replicate 2": 3129}
{"gene": "Arp5", "PubChem SID": "SID104196142", "firefly Hh reporter signal, replicate 1": 1.38e5, "firefly Hh reporter signal, replicate 2": 71099, "Renilla reference signal, replicate 1": 4512, "Renilla reference signal, replicate 2": 2336}
{"gene": "CG9812", "PubChem SID": "SID104184358", "firefly Hh reporter signal, replicate 1": 94053, "firefly Hh reporter signal, replicate 2": 39962, "Renilla reference signal, replicate 1": 2665, "Renilla reference signal, replicate 2": 4120}
{"gene": "AhcyL1", "PubChem SID": "SID104188439", "firefly Hh reporter signal, replicate 1": 78101, "firefly Hh reporter signal, replicate 2": 34773, "Renilla reference signal, replicate 1": 2227, "Renilla reference signal, replicate 2": 3050}
{"gene": "CG13813", "PubChem SID": "SID104189860", "firefly Hh reporter signal, replicate 1": 77928, "firefly Hh reporter signal, replicate 2": 1.34e5, "Renilla reference signal, replicate 1": 2488, "Renilla reference signal, replicate 2": 3942}
{"gene": "CG14258", "PubChem SID": "SID104194545", "firefly Hh reporter signal, replicate 1": 83536, "firefly Hh reporter signal, replicate 2": 1.01e5, "Renilla reference signal, replicate 1": 2563, "Renilla reference signal, replicate 2": 3338}
{"gene": "TwdlV", "PubChem SID": "SID104192018", "firefly Hh reporter signal, replicate 1": 1.28e5, "firefly Hh reporter signal, replicate 2": 1.45e5, "Renilla reference signal, replicate 1": 4429, "Renilla reference signal, replicate 2": 7512}
{"gene": "CG14085", "PubChem SID": "SID104189881", "firefly Hh reporter signal, replicate 1": 99936, "firefly Hh reporter signal, replicate 2": 89542, "Renilla reference signal, replicate 1": 4003, "Renilla reference signal, replicate 2": 2368}
{"gene": "Rcd6", "PubChem SID": "SID104185846", "firefly Hh reporter signal, replicate 1": 1.11e5, "firefly Hh reporter signal, replicate 2": 63049, "Renilla reference signal, replicate 1": 5472, "Renilla reference signal, replicate 2": 3059}
{"gene": "Spn77Ba", "PubChem SID": "SID104190485", "firefly Hh reporter signal, replicate 1": 74632, "firefly Hh reporter signal, replicate 2": 1.01e5, "Renilla reference signal, replicate 1": 3221, "Renilla reference signal, replicate 2": 3868}
{"gene": "c(3)G", "PubChem SID": "SID104195037", "firefly Hh reporter signal, replicate 1": 1.02e5, "firefly Hh reporter signal, replicate 2": 99754, "Renilla reference signal, replicate 1": 3392, "Renilla reference signal, replicate 2": 3714}
{"gene": "RpL10", "PubChem SID": "SID104191739", "firefly Hh reporter signal, replicate 1": "22649 (active)", "firefly Hh reporter signal, replicate 2": 37274, "Renilla reference signal, replicate 1": 1464, "Renilla reference signal, replicate 2": 1943}
{"gene": "Dtwd2", "PubChem SID": "SID104192293", "firefly Hh reporter signal, replicate 1": 73948, "firefly Hh reporter signal, replicate 2": 1.06e5, "Renilla reference signal, replicate 1": 3219, "Renilla reference signal, replicate 2": 3097}
{"gene": "Naa40", "PubChem SID": "SID104196057", "firefly Hh reporter signal, replicate 1": 1.00e5, "firefly Hh reporter signal, replicate 2": 1.01e5, "Renilla reference signal, replicate 1": 3451, "Renilla reference signal, replicate 2": 2724}

Entries listed above with an active call (1):
{"gene": "RpL10", "PubChem SID": "SID104191739", "firefly Hh reporter signal, replicate 1": "22649 (active)", "firefly Hh reporter signal, replicate 2": 37274, "Renilla reference signal, replicate 1": 1464, "Renilla reference signal, replicate 2": 1943}
